In publication doi:10.1101/2021.06.28.450115:
No constants are given. Whether binding was seen depends on the method and setting. Binding seen in cells or lysates may run through a third protein.

Target: Flag-tagged TP53 (exogenous wild-type p53, HEK293T) (UniProt P04637)
Test: co-IP

B1: exogenous DAB2IP (HEK293T) (protein, UniProt Q5VWQ8 1-1189)
chain: MSAGGSARKSTGRSSYYYRLLRRPRLQRQRSRSRSRTRPARESPQERPGSRRSLPGSLSEKSPSMEPSAATPFRVTGFLSRRLKGSIKRTKSQPKLDRNHSFRHILPGFRSAAAAAADNERSHLMPRLKESRSHESLLSPSSAVEALDLSMEEEVVIKPVHSSILGQDYCFEVTTSSGSKCFSCRSAAERDKWMENLRRAVHPNKDNSRRVEHILKLWVIEAKDLPAKKKYLCELCLDDVLYARTTGKLKTDNVFWGEHFEFHNLPPLRTVTVHLYRETDKKKKKERNSYLGLVSLPAASVAGRQFVEKWYPVVTPNPKGGKGPGPMIRIKARYQTITILPMEMYKEFAEHITNHYLGLCAALEPILSAKTKEEMASALVHILQSTGKVKDFLTDLMMSEVDRCGDNEHLIFRENTLATKAIEEYLKLVGQKYLQDALGEFIKALYESDENCEVDPSKCSAADLPEHQGNLKMCCELAFCKIINSYCVFPRELKEVFASWRQECSSRGRPDISERLISASLFLRFLCPAIMSPSLFNLLQEYPDDRTARTLTLIAKVTQNLANFAKFGSKEEYMSFMNQFLEHEWTNMQRFLLEISNPETLSNTAGFEGYIDLGRELSSLHSLLWEAVSQLEQSIVSKLGPLPRILRDVHTALSTPGSGQLPGTNDLASTPGSGSSSISAGLQKMVIENDLSGLIDFTRLPSPTPENKDLFFVTRSSGVQPSPARSSSYSEANEPDLQMANGGKSLSMVDLQDARTLDGEAGSPAGPDVLPTDGQAAAAQLVAGWPARATPVNLAGLATVRRAGQTPTTPGTSEGAPGRPQLLAPLSFQNPVYQMAAGLPLSPRGLGDSGSEGHSSLSSHSNSEELAAAAKLGSFSTAAEELARRPGELARRQMSLTEKGGQPTVPRQNSAGPQRRIDQPPPPPPPPPPAPRGRTPPNLLSTLQYPRPSSGTLASASPDWVGPSTRLRQQSSSSKGDSPELKPRAVHKQGPSPVSPNALDRTAAWLLTMNAQLLEDEGLGPDPPHRDRLRSKDELSQAEKDLAVLQDKLRISTKKLEEYETLFKCQEETTQKLVLEYQARLEEGEERLRRQQEDKDIQMKGIISRLMSVEEELKKDHAEMQAAVDSKQKIIDAQEKRIASLDAANARLMSALTQLKERYSMQARNGISPTNPTKLQITENGEFRNSSNC
binding: no binding
